The assay deals with cholinesterase (Rattus norvegicus, UniProt P37136). The experiment in a line: Cholinesterase inhibitory activity assayed with (acetyl-[3H])-acetylcholine, S1 fraction of cerebral cortex homogenate. The format is biochemical. To be noted: read-out: Acetylcholinesterase inhibitory activity I C50; S1 fraction of male Wistar rat cerebral cortex homogenate; (acetyl-[3H])-acetylcholine substrate; 30 minutes incubation.

Protein sequences, listed by entry. Tags and fused reporters are not part of them. Residues count along the entry.
UniProt P37136, 32-614 limits assumed: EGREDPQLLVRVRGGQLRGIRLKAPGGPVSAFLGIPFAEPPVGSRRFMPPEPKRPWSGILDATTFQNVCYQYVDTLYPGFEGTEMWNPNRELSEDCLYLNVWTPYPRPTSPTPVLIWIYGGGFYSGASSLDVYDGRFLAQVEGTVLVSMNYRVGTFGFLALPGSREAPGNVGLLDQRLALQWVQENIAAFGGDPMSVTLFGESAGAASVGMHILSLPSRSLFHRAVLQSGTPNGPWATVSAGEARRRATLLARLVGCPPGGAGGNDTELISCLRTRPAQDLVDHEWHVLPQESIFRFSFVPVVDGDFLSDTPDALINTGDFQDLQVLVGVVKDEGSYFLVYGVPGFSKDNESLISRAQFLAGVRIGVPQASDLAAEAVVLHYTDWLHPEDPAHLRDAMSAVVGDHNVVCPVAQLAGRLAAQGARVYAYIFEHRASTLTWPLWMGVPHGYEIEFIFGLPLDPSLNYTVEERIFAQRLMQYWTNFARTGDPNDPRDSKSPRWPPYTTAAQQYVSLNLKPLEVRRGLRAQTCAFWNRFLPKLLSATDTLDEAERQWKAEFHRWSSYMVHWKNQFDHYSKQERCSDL

Each structure is given as a SMILES string. The match of structure and compound is tentative.

As for `O=C(CCN1CCN(Cc2ccccc2)CC1)c1ccc2c(c1)CCN(Cc1ccccc1)CC2`, the IC50 came out at 52.6 nM.

These data come from EP0560235B1, “Condensed heterocyclic ketone derivatives, their production and use” (priority 1992, dated 1993).
